Data as given in PubChem BioAssay AID1508600 (Functional Genomics Laboratory (NCATS/FGL), 2020).
The whole screen tested about 53,000 sequences, of which about 3,700 (7%) were called active.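 The calls were made as follows: active = gene knockdowns whose robust z-score for IL-1 alpha signal is at least 2 or at most -2, so actives lie on both sides; inactive = the rest.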 The list shows a part of the results.

Test: Components of the Cytosolic LPS Sensing Pathway: Gene Identification via Genome-wide siRNA Screen;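 also: robust z of the log signal after scaling to non-targeting control siRNA wells of the plate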
Settings: RAW264.7 macrophages, IL-1a HTRF, actives lie on both sides, screened at 100 nM (by protocol), cells primed 5 h with Pam3CSK4 first
Outline: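 Knockdown: 100 nM siRNA, 48h, RAW264.7. Stimulation: Pam3CSK4 5 h, then LipidA via TransIT-TKO 24 h. Output: supernatant IL-1a HTRF, negative-control-normalized, log robust z-score; viability by CellTiter-Glo.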

z-score, inactive:
GGUGAUCCUAAGAAAGUCCTT against Ireb2 1.07, GGCUAAAAAGAGUAGACUATT against Irs1 1.14, GGUUUCAAAGAGUCUCAUUTT against Ccdc136 -0.00288, GGUGGUUGGUGGGUAUUUATT against Slc30a3 1.64, CCUUAGAUGAAAUUAGACATT against Bhlhb9 0.853, CACCUAAACCCAUUCCAGUTT against Dpm3 1.45, CCUGCCAGAGCCGGAAUUUTT against Nrp 1.49, GGCUGACCUCAUUAAUAACTT against Hsp90ab1 0.0919, GGAUUUGUGACUUUCUGCATT against Gstt4 0.209, CCAUCUGGACUUCAGUUUUTT against Rap1gap2 0.901, GCUAUGUGGCCAUAGAUUATT against Hemk1 -0.493, GGAACACAUUACCUCAAUUTT against Lipt2 -0.705, GGAAGACCCUUCUUAUGACTT against Fli1 0.318, GCCUUAUCCUGAGAAUGGCTT against Lrrc47 -0.61, GGAGACAACUGUCAAGCUGTT against Igdcc4 -0.0921, CGAACAGAAACAGUUAUUATT against Gbp2 1.01, GGCAUCCUUGACAUAACCUTT against Olfr586 -1.89, GGUGUUUAAAUACAACCGATT against Ptgis -0.506, GGAGUGCACUGGAAAACACTT against Rasef -0.436, GGAAUUUGAAGCUGUCACUTT against Spata2 -0.433, GCUCAUUCGGACCAAAACUTT against Nod1 -1.77, CCCAGGGAAACCUUAACUCTT against Pstpip1 -0.112, GGAUGCUCUAGUUCCAUUATT against Aym1 0.51, GGGAAUUGCUCACCUCCAUTT against Klre1 -0.46, GGACAUUACCAGCUUGCUGTT against Nkd1 0.665, GGCUGAUGAUAAGCUGAUUTT against Letm1 0.583, GCUGUGCAUAUGGUAUAUUTT against Taok1 1.11, GGUAGCAAUCAUUUUCCUUTT against Ccdc122 -0.569, GCCAAUAUUUGUUUUUGAGTT against Ranbp3l 0.0685, GGUCUACGACCGAUGUUCUTT against 9530003J23Rik 0.729, GGAACAGAAAGCUAUGGAUTT against Surf6 1.82, CCCACUUUGACACGACACATT against Sertad1 -1.46, GCAUCAUUUUAACACUUCUTT against Tubd1 -0.0435, GGUCUACUCUUCAUAUCGCTT against Rab3d -0.566, CGUACUCCGAAUUCAUGCATT against Jmjd8 -1.64, CGAUGUACUGUCUCUUUUGTT against Ywhaz 1.73, UGGCUGCCCACACCUUUAATT against Ankrd39 -0.617, GGUGAAGGCUGACCGAGAUTT against Rps14 -1.2, GGAUGGUGAAAAUCUUGAGTT against Mindy1 1.39, GGAAAUUCUUUGUGAGUUUTT against Ncapd2 1.06, GGUUUUAUUGCCUAAAAAGTT against Ankfy1 -0.357, GGAUAAGGAGAUGAAUUCCTT against Aard 1.01, GCCCACAGGAUAAUUGUUATT against Brox 1.26, CCCUGACCUUCAGAUUGUGTT against Olfr788 0.14, GCAGUGCAGAUCGUUAUUGTT against Stx7 0.223, GGGAUGAAUCCUAUUAGUATT against Stau1 -1.19, GGCAGUUCAUGUUUAAAGATT against Fgfr1op2 -0.381, CGGUCUGUGUAUGUUAAGATT against Upp2 -0.216, GGCGUACAACAACCUACAGTT against St6galnac5 1.06, GGUCGACCUAUUGGUAUUCTT against Oas1h -1.63, CGAAUGGCUGACCAUAAAATT against Sdr9c7 -0.803, GGUAUGAUGAUUGUUAGAUTT against Phf20 0.141, GCGUGCACACCUUUGAACUTT against 4930563M21Rik -0.0108, GGGACAGUUAGUCAGUAAGTT against Pus7l 0.196, GGACCAGUGUCUUAUUAAUTT against Osbpl8 0.619, GGACUGAAGCAGUAUCAAGTT against Eaf2 -0.463, GGUCAUAGAUGAGCUUAGUTT against Appl1 -0.763, GGAGAGAAGAAAGAAAAAGTT against Gps2 -1.27, GGAAGAAGGCAGAAGAGUUTT against Ube2l6 -1.94, GGCCCAUAUUGGCUACAUUTT against Skint4 -1.18, GGGAAAGUGCUCUAGCAAGTT against Rbm34 0.71, GGUUAUGAGAAUCUAAGAUTT against Ypel5 -1.21, CCAUAAGCGAAAUGCCUUCTT against Areg 0.201, GACACCACCAUCAAUCAACTT against Olfr338 -0.63, GGAACUAGAGACACUGAUUTT against Kcnk10 0.721, GGUGAAAAUGACCUGGUGATT against Cd300ld -0.116, GGAGGUAGGAAUAUGACUUTT against Klrb1c 0.0825, GGCCCAGUCAUGUCAAAUCTT against Olfr1346 -1.11, GGCCAUCUUGGACAGCAAGTT against Nt5m -1.2, GGACGGUGAGAUCUGUUUGTT against Clps 0.451, GGAACUACAUCAUUCAGAATT against Tspyl1 0.238, GGAGAAAGCAGAAAUUGAATT against Mfap1a -1.31, GCUGGUGUCGGCAAAUCCUTT against Wnk1 -0.62, GCCUCUGUUCCAUCUUGGATT against F830104G03Rik 1.61, GGACAUCAAGAAGGACAAATT against Ppp2r5d 0.874, GGGAUUAAUAUUUUCCUCUTT against Pttg1ip -0.42, GGAGUUCCUCAAACAGGAGTT against Nlrp4a -0.0725, GGUUCUGUUUGUCACAUUCTT against Olfr1234 0.201, CCGUUUUCAUGCAUUGUUGTT against Olfr1377 -0.609, GGUUGUGAACAGCAUGUACTT against Ccr9 -1.78, GAUCAUUCUCUUUUUCCUCTT against Olfr1095 -0.435, GCGGGUUAUCCUCUACUACTT against Col15a1 1.29, GCCUAAACAUUCAAAUCCCTT against Abcc3 -0.5, GGACUGUACAGUGGCAUUATT against Cd70 -1.69, GGCAGAGGAUCGAGAAAAGTT against Dhrs4 0.619, GGGUUUGGCUCGGUGUAUATT against Mos -0.929, GGAAUUAUGAUGUAGACAGTT against Garre1 0.662, CCAUAAUUCAGCUAGACCUTT against Axin1 0.201, CGAACUUUUCAGCAGAUACTT against Rprd1b -0.798, GGAACUGACAGAGCUUGAATT against Krtcap3 0.15, CCUGUCCUCUGGGCAUAAUTT against Olfr1276 -0.635, GGUCAUGUAUUUCCUCAUCTT against Omp 0.542, GGAUGUCACUCUUGCAUUGTT against Olfr948 0.75, CCUACCCAAACCUACUAAATT against Gpt2 -0.168

z-score, active:
GGAAUUGUUAAUUGUGGGATT against Stau2 -2.25, GGAAGAUGAAGAGUCAGAGTT against Setd1b -2.52, GGACUUUGUACAUUGUUUUTT against Actb 2.2, CCAGGAGGAUACAAUCCCUTT against Rgs3 -3.38, GGGAAUUUACUGCAGGAUATT against Itln1 2.72, GGGAUGAAGUGUUCCAUCCTT against Ccdc187 2.88, CGAAGUUACGAGCAUCCACTT against Crhr2 3.81, GCAUAGUUGGAACCGUAUUTT against Tdpoz3 2.25, CGUUACCAUGAGAGUUAAUTT against Pcdhb19 3.83, GCAACUGCCUAGGCUUGAUTT against Slc30a7 4.79, CCCACCUUCAAGCAAGAACTT against Ifnk -2.51, GCUGUACCCGAAUGAGUUUTT against Mgat2 2.54, GGCAUUGAGAUGAAAUGAATT against 4933427E11Rik -2.5
